Data source: PubChem BioAssay AID1259254 (NCATS, 2017)
This is an unselected part of about 59,000 reagents. Over the whole deposit, about 1,550 (2.6%) were called active. 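G2 share is only a proxy for re-replication; each gene was hit by three separate siRNAs, and active genes were retested.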 The numbers tell different reagents against one gene apart. Further read-outs or replicates are left out here. Reagent sequences are not shown. Not given: the amount of reagent.

- Assay: 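Genome-wide screen for genes that prevent DNA re-replication in cancer cells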 (primary screen)
- Cells: human HCT116 colorectal cancer cells
- Reagents: single siRNA against human genes
- Timing: 3 days
- Read-out: 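Nuclei stained with Hoechst and imaged; cell-cycle phase assigned by DNA content; G2 share scaled per plate, non-targeting siRNA 0%, GMNN siRNA 100%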
- Scale: G2 robust z-score: higher = more G2 cells, more excess DNA replication
- Hit rule: 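Active siRNAs have a G2 robust z of 5 or more median absolute deviations over the median, which in these data means about 38% or higher of GMNN control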

RSBN1L (GeneID 222194) #1 — G2 robust z-score: -0.45; Call: inactive
RSBN1L (GeneID 222194) #2 — G2 robust z-score: 0.402; Call: inactive
RSBN1L (GeneID 222194) #3 — G2 robust z-score: -0.111; Call: inactive
SERPINF2 (GeneID 5345) #1 — G2 robust z-score: 2.77; Call: inactive
SERPINF2 (GeneID 5345) #2 — G2 robust z-score: -0.658; Call: inactive
SERPINF2 (GeneID 5345) #3 — G2 robust z-score: 0.832; Call: inactive
CA3 (GeneID 761) #1 — G2 robust z-score: 1.21; Call: inactive
CA3 (GeneID 761) #2 — G2 robust z-score: 0.055; Call: inactive
CA3 (GeneID 761) #3 — G2 robust z-score: 2.52; Call: inactive
IL21R (GeneID 50615) #1 — G2 robust z-score: 0.641; Call: inactive
IL21R (GeneID 50615) #2 — G2 robust z-score: 1.37; Call: inactive
IL21R (GeneID 50615) #3 — G2 robust z-score: 1.08; Call: inactive
HAS1 (GeneID 3036) #1 — G2 robust z-score: -1.01; Call: inactive
HAS1 (GeneID 3036) #2 — G2 robust z-score: -1.26; Call: inactive
HAS1 (GeneID 3036) #3 — G2 robust z-score: 0.0166; Call: inactive
ETS2-AS1 (GeneID 400867) #1 — G2 robust z-score: 1.57; Call: inactive
ETS2-AS1 (GeneID 400867) #2 — G2 robust z-score: 3.89; Call: inactive
ETS2-AS1 (GeneID 400867) #3 — G2 robust z-score: 0.0892; Call: inactive
ANGPTL1 (GeneID 9068) #1 — G2 robust z-score: 4.02; Call: inactive
ANGPTL1 (GeneID 9068) #2 — G2 robust z-score: 5.16; Call: active
ANGPTL1 (GeneID 9068) #3 — G2 robust z-score: 1.14; Call: inactive
C20orf141 (GeneID 128653) #1 — G2 robust z-score: 0.617; Call: inactive
C20orf141 (GeneID 128653) #2 — G2 robust z-score: 2.7; Call: inactive
C20orf141 (GeneID 128653) #3 — G2 robust z-score: 1.54; Call: inactive
SLC20A1 (GeneID 6574) #1 — G2 robust z-score: 4.7; Call: inactive
SLC20A1 (GeneID 6574) #2 — G2 robust z-score: -0.00253; Call: inactive
SLC20A1 (GeneID 6574) #3 — G2 robust z-score: -0.934; Call: inactive
ZCCHC13 (GeneID 389874) #1 — G2 robust z-score: 1.46; Call: inactive
ZCCHC13 (GeneID 389874) #2 — G2 robust z-score: 1.17; Call: inactive
ZCCHC13 (GeneID 389874) #3 — G2 robust z-score: -0.362; Call: inactive

4 entries from above, sorted by “G2 robust z-score”, high to low.
ZCCHC13 (GeneID 389874) #1 — G2 robust z-score: 1.46; Call: inactive
ZCCHC13 (GeneID 389874) #2 — G2 robust z-score: 1.17; Call: inactive
SLC20A1 (GeneID 6574) #2 — G2 robust z-score: -0.00253; Call: inactive
SLC20A1 (GeneID 6574) #3 — G2 robust z-score: -0.934; Call: inactive
